This assay in a line: qHTS Assay for Lipid Storage Modulators in Drosophila S3 Cells.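 For cell number change: cells counted by Cell Tracker Red CMTPX staining in the red channel.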 The following applies: BODIPY lipid droplet fluorescence, 18-24 h; for cell number change: measured here: cell count max response, cells fed with added oleic acid. An outline of the steps: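 Drosophila S3 cells loaded with oleic acid (400 uM, as added) and compounds at several concentrations; lipid droplets imaged by 488-nm laser-scanning cytometry, 500–530 nm intensity and object ratio to cell channel. Percent activity normalized to 20 uM Triacsin C.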

Setting [1] is: measured here: cell number channel AC50, cells fed with added oleic acid.
Setting [2] is: measured here: lipid fluorescence (Fed channel) AC50, cells fed with added oleic acid.

The structures appear in SMILES notation. The list shows a part of the results. The main result of the screen is listed elsewhere. These columns were measured beside it and carry no call. The list favours compounds with an active or inconclusive main result. Words in brackets tell the shape of the fitted curve; partial curves, single points and poor fits give uncertain potencies.

With `Cc1cc[n+](CC(=O)Nc2nc3ccccc3s2)cc1`, the cell number change was determined as 1.55%. For the same compound, the AC50 under setting [1] is 2060 nM [falling, partial curve]. Under setting [2], the AC50 is 2310 nM [falling, partial curve]. As to `Cc1c(C(=O)N2CCN(c3ccccn3)CC2)oc2c(F)cccc12`, the cell number change was -9.46%. Also, the AC50 under setting [2] was 731 nM [falling, single point]. Turning to `COc1cc(C(=O)OCC(=O)N2CC(C)OC(C)C2)cc(OC)c1OC` (stereo unspecified), the cell number change is 9.46%. Besides, under setting [2], the concentration at half-maximal activity (AC50) is 29100 nM [falling, single point].

Consider `Cc1cc(F)ccc1NCc1ccncc1`, for which the cell number change is -20.2%. In the case of `COc1cc(SC)ccc1C(=O)Nc1cccc(S(=O)(=O)NC2=NCCC2)c1`, the cell number change was -5.5%. For the same compound, under setting [2], the AC50 was 29100 nM [falling, single point].

With `Cc1ccc(NC(=O)CCC(=O)N/N=C/c2cccnc2)cc1`, the cell number change came to 16.7%. Under setting [2], the AC50 was 29100 nM [rising, single point].

As for `Cc1cc(NC(=O)Cn2nc(-c3cccs3)ccc2=O)cc(C)c1Br`, the cell number change amounted to 22.2%. The AC50 under setting [2] was 3260 nM [falling, full curve].

Take `Cc1ccccc1OCC(=O)OCC(=O)c1ccc(-c2ccccc2)cc1`: the cell number change came to 3.3%. Besides, the AC50 under setting [1] was 651 nM [falling, single point]. The AC50 under setting [2] was 1160 nM [falling, single point]. For `O=C(NCCOCCOCCNC(=O)c1ccccc1)c1ccccc1`, the cell number change was -9.97%. The concentration at half-maximal activity (AC50) under setting [2] is 184 nM [falling, full curve, poor fit]. Take `CC1=C(C(=O)OCc2ccccc2)C(c2ccccc2Cl)NC(=O)N1CCCC(=O)O` (stereo unspecified): the cell number change turned out to be 19.5%. The AC50 under setting [2] was 92 nM [falling, full curve, poor fit]. As for `CCC(Oc1ccccc1)C(=O)NCCCN1CCOCC1` (stereo unspecified), the cell number change amounted to 10.4%.

Consider `C/C(=N\Nc1ccc(C(=O)O)cc1)c1ccc(-n2ccnc2)cc1`, for which the cell number change was determined as 25.4%.

Turning to `CC(NC(=O)c1ccccc1)C(=O)OCC(=O)c1c(N)n(C)c(=O)n(C)c1=O` (stereo unspecified), the cell number change was determined as 27.8%. Further, the AC50 under setting [2] was 73.1 nM [falling, full curve, poor fit]. Regarding `CC(C)NC(=O)c1cc2cc(Br)ccc2oc1=O`, the cell number change worked out at 78.1%. Also, under setting [1], the half-maximal activity concentration (AC50) is 29100 nM [rising, single point].

In the case of `CCOc1cccc(/C=C/c2ccc3ccccc3n2)c1OC(C)=O`, the cell number change is -24.8%. Besides, under setting [1], the AC50 is 461 nM [falling, full curve, poor fit]. For the same compound, under setting [2], the AC50 is 651 nM [falling, single point]. With `CCOC(=O)c1ccc(NC(=S)NCCC2=CCCCC2)cc1`, the cell number change was -28.3%. Consider `CCOC(=O)NC(NS(=O)(=O)c1ccccc1)(C(=O)OCC)C(F)(F)F` (stereo unspecified), for which the cell number change was -10.9%. Moreover, the AC50 under setting [2] was 65.1 nM [falling, full curve, poor fit].

On to `CCCNC(=S)Nc1cc2oc3ccccc3c2cc1OC`, for which the cell number change is -7.65%. As to `COc1ccc(Cc2nnc(SCC(=O)c3ccc(OC)cc3)o2)cc1`, the AC50 under setting [2] is 3260 nM [falling, single point]. As for `COCCN(CCOc1cc(C)cc(C)c1)Cc1ccc(Cl)cc1`, the cell number change is -36.3%. Also, the AC50 under setting [1] is 29100 nM [falling, single point]. In addition, the AC50 under setting [2] is 29100 nM [falling, single point]. For `CCCCN(c1ccccc1)S(=O)(=O)N(C)C`, the cell number change is -15.7%. Also, the AC50 under setting [2] is 461 nM [falling, partial curve, poor fit]. `COc1cccc(C(=O)Nc2ccccc2NC(=O)c2cccc(OC)c2)c1`: the cell number change is -12.3%. In the case of `O=C(OCC(=O)N1CCCCCC1)c1cccc(Cl)c1`, the cell number change amounted to 20.9%. Also, the AC50 under setting [2] was 29100 nM [rising, single point]. On to `COc1c2occc2c(OC(C)=O)c2c(=O)cc(C)oc12`, for which the cell number change came to 25%. Regarding `CCOc1cc(N2CCOCC2)c(OCC)cc1NC(=O)CC12CC3CC(CC(C3)C1)C2`, the cell number change was -1.14%. The AC50 under setting [2] was 6510 nM [rising, single point].

As to `O=C(CSc1ccc([N+](=O)[O-])cn1)Nc1nccs1`, the AC50 under setting [2] is 16400 nM [falling, partial curve]. With `Cc1cc(N2C(=O)C=CC2=O)c([N+](=O)[O-])cc1C`, the cell number change was -82.6%. The AC50 under setting [1] is 23100 nM [falling, partial curve, poor fit]. Moreover, the AC50 under setting [2] was 23100 nM [falling, partial curve]. Turning to `CN(C)C(=O)C(Sc1ccc(S(=O)(=O)N2CCCC2)cn1)c1ccccc1` (stereo unspecified), the AC50 under setting [2] was 2310 nM [falling, full curve].

For `Cn1c(=O)n(C)c2cc(NC(=O)CSc3ccccc3)ccc21`, the cell number change was -19.9%. For the same compound, the AC50 under setting [2] was 32600 nM [falling, single point]. In the case of `CNC(=O)COc1coc(CN2CCN(C(=O)c3ccco3)CC2)cc1=O`, the cell number change is -0.396%. Further, the half-maximal activity concentration (AC50) under setting [1] was 5.8 nM [falling, full curve, poor fit]. Besides, under setting [2], the AC50 is 5.17 nM [falling, full curve, poor fit]. On to `CCCC1CCc2c(c3ccccc3[nH]c2=O)O1` (stereo unspecified), for which the cell number change was 37.1%. Besides, under setting [1], the AC50 was 1460 nM [rising, partial curve, poor fit].

Regarding `CCOc1ccccc1N(C(=O)c1ccco1)C(C(=O)NC1CCCC1)c1cccnc1` (stereo unspecified), the cell number change amounted to 144%. The AC50 under setting [1] was 8200 nM [rising, partial curve]. In addition, the AC50 under setting [2] is 2060 nM [rising, partial curve].

As for `Cc1ccc(N2CC(C(=O)NC3CCSC3=O)CC2=O)cc1` (stereo unspecified), the cell number change was 9.63%. For the same compound, the AC50 under setting [2] was 29100 nM [falling, single point]. In the case of `CC1C=CCC2C(=O)N(c3cccc(C(=O)Nc4ccc(Br)cc4)c3)C(=O)C12` (stereo unspecified), the cell number change is -27.7%. Also, the AC50 under setting [2] is 29100 nM [falling, single point]. In the case of `CCOc1cc(C)c(-c2onc(C(F)(F)F)c2-c2csc(C)n2)c(O)c1`, the cell number change was -58.8%. For the same compound, the concentration at half-maximal activity (AC50) under setting [1] is 10300 nM [falling, partial curve]. For the same compound, the AC50 under setting [2] is 8200 nM [falling, partial curve]. In the case of `Cc1ccc(NNC2CC(=O)N(c3cccc(Cl)c3)C2=O)cc1` (stereo unspecified), under setting [2], the AC50 was 164 nM [falling, full curve, poor fit]. For the compound `COc1ccc(C(=O)NCCS(=O)(=O)NCCc2ccccc2)cc1`, the cell number change was -19.5%. For the same compound, the AC50 under setting [1] was 6.51 nM [falling, full curve, poor fit].

Regarding `COc1cc(CNCc2ccc(C)cc2)cc(OC)c1OC`, the cell number change was determined as 9.84%. For the same compound, under setting [2], the AC50 is 326 nM [rising, full curve, poor fit].

Consider `CN(Cc1ccccc1)C(=O)CNC(=O)C12CC3CC(CC(C3)C1)C2`, for which the cell number change was -33.7%. Under setting [1], the AC50 was 146 nM [falling, full curve]. Under setting [2], the concentration at half-maximal activity (AC50) is 651 nM [falling, full curve, poor fit].

These data come from PubChem BioAssay AID2685 (National Center for Advancing Translational Sciences (NCATS), 2010).
